{"source": "PubChem BioAssay AID686938 | Drosophila RNAi Screening Center – 2013", "assay": "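Knock-downs reducing store-operated calcium influx in Drosophila cells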 (primary screen)", "cell system": "Drosophila S2R+ cells", "knock-down reagent": "long dsRNA against Drosophila genes, about 0.25 µg dsRNA per well, roughly 10,000 cells", "time to read-out": "5 days of knock-down before the calcium assay", "challenge": "thapsigargin (SERCA pump blocker) to empty calcium stores; entry signal taken 4 min after adding it", "measured": "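Per-well fluo-4 fluorescence in two replicates, unnormalised, measured in resting cells and 4 min after store depletion by the SERCA blocker thapsigargin; ratio of the two present in few wells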", "direction": "calcium entry signal: higher = stronger calcium signal after store depletion; resting calcium signal: higher = higher resting calcium signal", "units": "calcium entry signal in fluorescence units; resting calcium signal in fluorescence units", "call rule": "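Hit if the duplicate-averaged plate z-score for entry over resting signal is under −3; wells with weak total dye signal (Fmax z < −2) or more than 5 off-targets removed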", "meaning of the calls": "active = strongly reduced calcium entry; inactive = no strong reduction", "note": "The screen tested about 23,000 reagents; this is a random part of those with a known target gene and a result. In the full data, 75 (0.33%) got an active call. 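Raw plate signals without normalisation; calls rest on plate z-scores that were not deposited; ratio present for only 364 wells.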 A plus sign joins genes that one reagent is predicted to hit. Not stated in the record: the dose of the treatment."}
{"Target gene":"CR18217","amplicon":"DRSC21506","calcium entry signal, replicate 1":2.87e7,"calcium entry signal, replicate 2":3.47e7,"resting calcium signal, replicate 1":1.49e7,"resting calcium signal, replicate 2":1.46e7,"call":"inactive"}
{"Target gene":"CG32196","amplicon":"DRSC09548","calcium entry signal, replicate 1":3.30e7,"calcium entry signal, replicate 2":4.28e7,"resting calcium signal, replicate 1":1.52e7,"resting calcium signal, replicate 2":2.06e7,"call":"inactive"}
{"Target gene":"CG43071","amplicon":"DRSC05753","calcium entry signal, replicate 1":3.45e7,"calcium entry signal, replicate 2":3.85e7,"resting calcium signal, replicate 1":1.58e7,"resting calcium signal, replicate 2":1.97e7,"call":"inactive"}
{"Target gene":"ClC-b","amplicon":"DRSC07220","calcium entry signal, replicate 1":2.92e7,"calcium entry signal, replicate 2":3.54e7,"resting calcium signal, replicate 1":1.54e7,"resting calcium signal, replicate 2":1.76e7,"call":"inactive"}
{"Target gene":"CG9727","amplicon":"DRSC12585","calcium entry signal, replicate 1":4.57e7,"calcium entry signal, replicate 2":5.56e7,"resting calcium signal, replicate 1":1.81e7,"resting calcium signal, replicate 2":2.22e7,"call":"inactive"}
{"Target gene":"Mipp1","amplicon":"DRSC11223","calcium entry signal, replicate 1":2.60e7,"calcium entry signal, replicate 2":3.58e7,"resting calcium signal, replicate 1":1.16e7,"resting calcium signal, replicate 2":2.64e7,"call":"inactive"}
{"Target gene":"CG33648","amplicon":"DRSC01387","calcium entry signal, replicate 1":2.69e7,"calcium entry signal, replicate 2":3.83e7,"resting calcium signal, replicate 1":1.48e7,"resting calcium signal, replicate 2":1.55e7,"call":"inactive"}
{"Target gene":"CG12480","amplicon":"DRSC19460","calcium entry signal, replicate 1":2.86e7,"calcium entry signal, replicate 2":3.87e7,"resting calcium signal, replicate 1":1.52e7,"resting calcium signal, replicate 2":1.84e7,"call":"inactive"}
{"Target gene":"Nep6","amplicon":"DRSC19877","calcium entry signal, replicate 1":2.84e7,"calcium entry signal, replicate 2":2.72e7,"resting calcium signal, replicate 1":1.65e7,"resting calcium signal, replicate 2":1.44e7,"call":"inactive"}
{"Target gene":"CG15345 (retired record)","amplicon":"DRSC18030","calcium entry signal, replicate 1":3.12e7,"calcium entry signal, replicate 2":5.18e7,"resting calcium signal, replicate 1":1.73e7,"resting calcium signal, replicate 2":2.62e7,"call":"inactive"}
{"Target gene":"CG15345 (retired record)","amplicon":"DRSC22712","calcium entry signal, replicate 1":3.04e7,"calcium entry signal, replicate 2":2.98e7,"resting calcium signal, replicate 1":1.69e7,"resting calcium signal, replicate 2":1.36e7,"call":"inactive"}
{"Target gene":"HDAC4","amplicon":"DRSC19780","calcium entry signal, replicate 1":4.02e7,"calcium entry signal, replicate 2":4.61e7,"resting calcium signal, replicate 1":1.95e7,"resting calcium signal, replicate 2":2.10e7,"call":"inactive"}
{"Target gene":"CG43260 (retired record)","amplicon":"DRSC19313","calcium entry signal, replicate 1":2.93e7,"calcium entry signal, replicate 2":4.01e7,"resting calcium signal, replicate 1":1.50e7,"resting calcium signal, replicate 2":1.84e7,"call":"inactive"}
{"Target gene":"CG5245","amplicon":"DRSC15750","calcium entry signal, replicate 1":4.49e7,"calcium entry signal, replicate 2":3.68e7,"resting calcium signal, replicate 1":2.20e7,"resting calcium signal, replicate 2":1.89e7,"call":"inactive"}
{"Target gene":"mip120","amplicon":"DRSC06960","calcium entry signal, replicate 1":3.14e7,"calcium entry signal, replicate 2":3.02e7,"resting calcium signal, replicate 1":1.62e7,"resting calcium signal, replicate 2":1.45e7,"call":"inactive"}
{"Target gene":"DIP-iota","amplicon":"DRSC02140","calcium entry signal, replicate 1":2.51e7,"calcium entry signal, replicate 2":2.84e7,"resting calcium signal, replicate 1":1.36e7,"resting calcium signal, replicate 2":1.34e7,"call":"inactive"}
{"Target gene":"baf","amplicon":"DRSC03051","calcium entry signal, replicate 1":4.27e7,"calcium entry signal, replicate 2":5.61e7,"resting calcium signal, replicate 1":1.99e7,"resting calcium signal, replicate 2":2.52e7,"call":"inactive"}
{"Target gene":"asun","amplicon":"DRSC16733","calcium entry signal, replicate 1":3.63e7,"calcium entry signal, replicate 2":2.76e7,"resting calcium signal, replicate 1":1.74e7,"resting calcium signal, replicate 2":1.25e7,"call":"inactive"}
{"Target gene":"Cul4","amplicon":"DRSC07243","calcium entry signal, replicate 1":2.54e7,"calcium entry signal, replicate 2":3.28e7,"resting calcium signal, replicate 1":1.61e7,"resting calcium signal, replicate 2":1.68e7,"call":"inactive"}
{"Target gene":"CG9962","amplicon":"DRSC00739","calcium entry signal, replicate 1":3.48e7,"calcium entry signal, replicate 2":3.29e7,"resting calcium signal, replicate 1":1.65e7,"resting calcium signal, replicate 2":1.59e7,"call":"inactive"}
{"Target gene":"Gr57a","amplicon":"DRSC06401","calcium entry signal, replicate 1":3.17e7,"calcium entry signal, replicate 2":2.96e7,"resting calcium signal, replicate 1":1.52e7,"resting calcium signal, replicate 2":1.48e7,"call":"inactive"}
{"Target gene":"Cul1","amplicon":"DRSC07645","calcium entry signal, replicate 1":2.73e7,"calcium entry signal, replicate 2":3.21e7,"resting calcium signal, replicate 1":1.67e7,"resting calcium signal, replicate 2":1.59e7,"call":"inactive"}
{"Target gene":"Tsp26A","amplicon":"DRSC03135","calcium entry signal, replicate 1":4.03e7,"calcium entry signal, replicate 2":4.59e7,"resting calcium signal, replicate 1":1.83e7,"resting calcium signal, replicate 2":1.91e7,"call":"inactive"}
{"Target gene":"Wdr24","amplicon":"DRSC14151","calcium entry signal, replicate 1":4.09e7,"calcium entry signal, replicate 2":4.38e7,"resting calcium signal, replicate 1":2.14e7,"resting calcium signal, replicate 2":2.06e7,"call":"inactive"}
{"Target gene":"CG6836","amplicon":"DRSC10722","calcium entry signal, replicate 1":3.63e7,"calcium entry signal, replicate 2":4.19e7,"resting calcium signal, replicate 1":1.49e7,"resting calcium signal, replicate 2":2.98e7,"call":"inactive"}
{"Target gene":"antr","amplicon":"DRSC22392","calcium entry signal, replicate 1":1.86e7,"calcium entry signal, replicate 2":2.22e7,"resting calcium signal, replicate 1":1.04e7,"resting calcium signal, replicate 2":9.26e6,"call":"inactive"}
{"Target gene":"CG42353 + CG42354","amplicon":"DRSC23154","calcium entry signal, replicate 1":3.31e7,"calcium entry signal, replicate 2":2.92e7,"resting calcium signal, replicate 1":1.73e7,"resting calcium signal, replicate 2":1.45e7,"call":"inactive"}

A portion taken from the entries so far, as a working copy:
{"Target gene":"CG5245","amplicon":"DRSC15750","calcium entry signal, replicate 1":4.49e7,"calcium entry signal, replicate 2":3.68e7,"resting calcium signal, replicate 1":2.20e7,"resting calcium signal, replicate 2":1.89e7,"call":"inactive"}
{"Target gene":"mip120","amplicon":"DRSC06960","calcium entry signal, replicate 1":3.14e7,"calcium entry signal, replicate 2":3.02e7,"resting calcium signal, replicate 1":1.62e7,"resting calcium signal, replicate 2":1.45e7,"call":"inactive"}
